This is an account of results in US20250171555A1.

The target of this assay is T1, dog C5aR1 (dog) (UniProt P30992).
T1 sequence (looked up): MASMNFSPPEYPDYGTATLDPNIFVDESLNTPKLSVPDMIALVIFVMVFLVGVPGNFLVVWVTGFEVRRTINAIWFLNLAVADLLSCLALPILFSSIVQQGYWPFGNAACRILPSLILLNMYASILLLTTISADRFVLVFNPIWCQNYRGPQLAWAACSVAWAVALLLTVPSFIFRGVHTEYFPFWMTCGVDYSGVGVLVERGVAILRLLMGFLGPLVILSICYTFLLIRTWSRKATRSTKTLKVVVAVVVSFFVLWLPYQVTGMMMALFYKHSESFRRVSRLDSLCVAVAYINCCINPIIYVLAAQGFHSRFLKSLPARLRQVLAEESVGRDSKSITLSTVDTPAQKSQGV
The assay is described as follows: cell surface binding, flow cytometry, half-log titration 10^-7.5 to 10^-12 M. Background: A flow cytometer gives signals particle by particle.

These are yes or no findings as the source states them, for the method shown. Some binding calls cover weakened binding; strength is not graded here.

B1: e1711 (antibody, human IgG4 S228P, kappa, V domains shown)
VH: EVQLVESGGGLIQPGGSLRLSCAASGFTFNAYAMSWVRQAPGKGLEWVSSISTGGNTYYADSVKGRFTISRDNSKNTLYLQMNSLRAEDTAVYYCTRGYQRFSGFAYWGQGTLVTVSS
VL: EIVLTQSPATLSLSPGERATLSCRSSQSLVHSNGNTYLNWYQQKPGQAPRLLIYKVSNRLSGIPARFSGSGSGTDFTLTISSLEPEDFAVYYCSQSTHVPYTFGQGTKLEIKR
As to B1, the binding result is reported as “binds”.
